# ± gives the standard deviation. The entries are a selection whose mix differs from that of the whole data set. Many entries were measured with a wide error.
# Tested on: MIWI (PIWIL1) piRISC loaded with L1MC piRNA (30 nt)
# Test: pre-steady-state target cleavage rate (min^-1); MIWI and MILI are mouse PIWI proteins and EfPiwi is from a freshwater sponge; tags in brackets are library labels; higher = faster piRNA-guided slicing of the target
# Details: guide: L1MC piRNA 5'p-UAACUAAAUACUAUGCAAGCUGUAGGUCCU; auxiliary factor: 500 nM mouse GTSF1
# Method in brief: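 The method was Cleave-'n-Seq, in which uncleaved targets from a transcribed, DNA-blocked target RNA library were sequenced after exposure to active affinity-purified piRISC carrying one synthetic guide, with or without GTSF1 partner protein. Reactions contained 0.1 nM library, 1 nM piRISC and, where present, 500 nM GTSF1 in HEPES–potassium acetate buffer at 33 °C for 0–8 or 0–960 min. Reads were normalised to depth and to weakly complementary targets, three trials were pooled, and k3 was capped at 0.0001 min^-1. The pre-steady-state cleavage rate came from a burst-and-steady-state fit.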
row,Sequence,pre-steady-state target cleavage rate
1,UCCUGGAUGUCGAACGUAUCUAUUUUCUUA,0.000332 ± 0.013
2,UCCUGGAUGUGGAAGCAUAGUAUUUAGUAA,0.0029 ± 0.0037
3,UCCUGGAUGAGCUUCGUUAGUAUUUAGUAA,0.000309 ± 0.029
4,UCCUGGAUGUCGAACGUUAGAAUUUUGUUA,0.000154 ± 0.053
5,UCCUGGAUGUCGUUGCUUAGUUUUUAGUUA,0.000582 ± 0.018

# Same assay, conditions: guide: L1MC piRNA 5'p-UAACUAAAUACUAUGCAAGCUGUAGGUCCU; auxiliary factor: none (no GTSF1)
row,Sequence,pre-steady-state target cleavage rate
1,UCCUGGAACAGCUUCGAUAGUAUUUAGUAA,0.00217 ± 0.0037
2,UCCUGGAUGUCGUAGCAUAGUAUUAAGUUA,0.000539 ± 0.0097
3,UCCUGGAUGUCGAACGAUAGUCAUUUAGUUA,0.000764 ± 0.0063
4,UCCUGGUACAGCUUCGAUAGUAUUUAGAAA,0.00108 ± 0.0067
5,UCCUGGAUGUCCUUGCAUACGUAUUUAGUUA,0.00106 ± 0.0078
6,UCCUGGAUCACCUUGCAUAGUAUUUAGAAA,0.00141 ± 0.0032
7,UCCUGGAUGUCCUUGCAUAGUUUAUAGUUA,0.00171 ± 0.0034
8,UCCUGGAUGUCGUUGCAUUCAAUUUAGUUA,0.000386 ± 0.016
9,UCCUGGAUCAGCUUGCAUAGUAUAAAGAAA,0.00193 ± 0.0035
10,UCCUGGUACAGCUUGCAUAGUAAUUACAAA,0.00161 ± 0.0046
11,UCCUGGAUGAGCUUCCAUUGUAUUUAGUUA,0.000896 ± 0.0068
12,UCCUGGAUGUCGUUGCAAAGUAUAUAGUUA,0.000223 ± 0.02
13,UCCUGGAUCAGCUUGCAAUCAUAAAUCAAA [g14:g22:cont:t1A],0.000188 ± 0.019
14,UCCUGGAUGUCGAAGCAUAGUAUUUAGUUUA,0.00143 ± 0.0063
15,UCCUGGUACAGCUUGCAUAGUCAUUUAGUUA,0.00318 ± 0.0035
16,UCCUGGUACAGCUUGCAUUCUAUUUAGUUA,0.00293 ± 0.0032
17,UCCUGGAACAGCUUGCAUAGUAUAUAGAAA,0.00109 ± 0.0049

row,Sequence,pre-steady-state target cleavage rate
1,UCCUGCUACAGCUUGCAUAGAUUUUUCAAA,0.000224 ± 0.016
2,UCCUGGAUCAGCUUGCAUAGAUUUUAGUAA,0.0024 ± 0.0024
3,UCCUGGAUCUCCUUGCAUAGUAUUUACAAA,0.0013 ± 0.0052
4,UCCUGGAUGUGCUUCAUAGUAUUUAGUUA,0.00159 ± 0.0038
5,UCCUGGAUGUCGUUGCAUAGUCUUUAGUUA,0.00263 ± 0.0034
6,UCCUGGAUGAGGUUGCAUAGUAUAUAGUUA,0.00279 ± 0.0052
7,UCCUGGAUGUCGAACGUAUGUAUAUAGUAA,0.000238 ± 0.021
8,UCCUGGAUGUCCUUGGAUAGUUUUUAGUUA,0.000654 ± 0.013
9,UCCUGGAUGUCGAACGUUAGUAUAAAGUUA,0.000147 ± 0.037
10,UCCUGGAUCAGCUUGCAUAGUAAAAAGUAA,0.00162 ± 0.0048
11,UCCUGGAUGUGCUUGCAUACAAUUUAGUUA,0.00222 ± 0.0036
12,UCCUGGAUGUCGAAGCAUAGUAUUUGGUUA,0.000939 ± 0.0068
13,UCCUGGAUGUCGAAGCAUAAGUAUUUAGUUA,0.000193 ± 0.016
14,UCCUCCUACAGCUUGCAUACAUUUUAGUAA,0.000819 ± 0.0089
15,UCCUGGAUGUCGAACGAAAGUAUUUAGUAA,0.000238 ± 0.023
16,UCCUGGAUGAGCUUCCAAAGUAUUUAGUUA,0.00148 ± 0.0039
17,UCCUGGAUGUCGAUGCAUAGUUAAAUCAAA [g10:g17:cont:t1A],0.000532 ± 0.0094

# A different layout for some results above.
row	Sequence	pre-steady-state target cleavage rate
10	UCCUGGAUCAGCUUGCAUAGUAAAAAGUAA	0.00162 ± 0.0048
11	UCCUGGAUGUGCUUGCAUACAAUUUAGUUA	0.00222 ± 0.0036
12	UCCUGGAUGUCGAAGCAUAGUAUUUGGUUA	0.000939 ± 0.0068

# — the supplement of paper PMC10338343
